In PMC8326471, “Synthesis and biological evaluation of new pyrazolebenzene-sulphonamides as potential anticancer agents and hCA I and II inhibitors” (Turkish Journal of Chemistry, 2021):

Experiments:
OSCC lines = conditions: cited from earlier work
[1] = system: HSC-3 oral squamous cell carcinoma cells; assay: Cytotoxicity assay (MTT), HSC-3; type: cell-based, human; conditions: selectivity index towards HSC-3
Description: (§1) The cytotoxicity of the compounds 4a - 4j were assayed towards human tumor cell lines [gingival carcinoma (Ca9–22), oral squamous cell carcinoma (HSC-2)] and human normal oral cells [gingival fibroblasts (HGF), and periodontal ligament fibroblasts (HPLF)] as described [42, 54 – 56]. In brief, all cells were cultured in Dulbecco’s modified eagle’s medium (DMEM) supplemented with 10% fetal bovine serum (FBS). The following concentrations of the compounds in dimethylsulfoxide (DMSO) were added to the medium and incubated at 37 ° C for 48 h: 4a - 4j ([…]), melphalan (3.12, 6.25, 12.5, 25. 50, 100, 200 and […]) and 5-FU ([…]). The media that contained the same concentration of DMSO ([…], 0.03125, 0.0625, 0.125, 0.25, 0.5 or 1%) were used as controls since DMSO above 0.25% is cytotoxic. The viable cell numbers were determined by the 3-(4,5-dimethylthiazol-2-yl)-2,5-diphenyltetrazolium bromide (MTT) assay. The CC50 values were determined from dose-response curves.
(§2) Cytotoxicity’s of the compounds 4a - 4j were evaluated towards Ca9–22, HSC-2, HSC-3, and HSC-4 human oral squamous cell carcinoma cell lines as tumor cell lines and HGF, HPLF, and HPC human normal oral cells as nontumor cells (Table 1) according to the procedure in the literature [42, 54 – 56]. 5-Fluorouracil (5-FU) was used as a reference anticancer drug.

[2] = system: gingival carcinoma (Ca9-22) cells; assay: Cytotoxicity assay (MTT), Ca9-22; type: cell-based, human; conditions: for PSE2 (C/A2)x100: potency selectivity expression, HGF vs Ca9-22; for SI Ca9-22: selectivity index towards Ca9-22; for TS2 (C/A): tumor selectivity, HGF / Ca9-22 CC50; for increase of PSE2 (times) compared to 4a / decrease of PSE2 (times) compared to 4a: relative to 4a; for increase of PSE2 (times) compared to 4c: relative to 4c (3-methoxy); for increase of PSE2 (times) compared to 4d: relative to 4d (2-methoxy); for increase of PSE2 (times) compared to 4b: relative to 4b (4-methoxy)
Description: as §1, §2

[3] = system: HSC-4 oral squamous cell carcinoma cells; assay: Cytotoxicity assay (MTT), HSC-4; type: cell-based, human; conditions: selectivity index towards HSC-4
Description: as §1, §2

[4] = system: oral squamous cell carcinoma (HSC-2) cells; assay: Cytotoxicity assay (MTT), HSC-2; type: cell-based, human; conditions: selectivity index towards HSC-2
Description: as §1, §2

[5] = system: human oral squamous cell carcinoma cell lines (Ca9-22, HSC-2, HSC-3, HSC-4); assay: Cytotoxicity assay, all tumor cell lines (mean, TS1, PSE1); type: cell-based; conditions: for PSE1 (D/B2)×100: potency selectivity expression, all cells; for TS1 (D/B): tumor selectivity, mean non-tumor / mean tumor CC50
Description: as §1, §2
The tumor selectivity (TS1 and TS2) of each compound was calculated as described in previously reported literature procedures and these figures are presented in Table 1. Based on the TS1 values, 4f and 4g which have 2,5 and 2,4-dimethoxy substituents had the highest TS1 values in a series with 22.4 and 22.2, respectively. On the other hand, the 3,4,5-trimethoxy substituted compound 4i (TS1: 19.6) had the […] TS1 value. […] As expected, they were in accordance with the literature findings [16 – 18]. The second calculation (TS2) considered the differences of sensitivity between the malignant (Ca9–22) and non-malignant (HGF) cells derived from the same tissue (gingiva). According to TS2 values obtained, 4i (3,4,5-trimethoxy) had the highest TS2 value of 43.
The desired properties for a lead compound are being both markedly cytotoxic and selectively toxic for tumors. PSE1 reflects general cytotoxicity and selectivity potency of the compound towards all cells used, whereas PSE2 seems more specified since it was considered for the same origin cells. When the compounds tested towards OSCC lines were considered in terms of PSE2 values of the compounds. The best poly-methoxylated compounds were 4i (with 3,4,5-trimethoxy, PSE2 = 461.5) ˃ 4f (with 2,5-dimethoxy, PSE2 = 425.1) ˃ 4g (with 2,4-dimethoxy, PSE2 = 405.4) while the best mono-methoxylated derivative was 4b (with 4-methoxy, PSE2 = 205).

Compound	TS (first value) (OSCC lines; against OSCC, compared with TS 18 of 4b)	TS (second value) (OSCC lines; against OSCC, compared with TS 28.6 of 4b)	SI HSC-3 [1]	PSE2 (C/A2)x100 [2]	SI Ca9-22 [2]	TS2 (C/A) [2]	SI HSC-4 [3]	SI HSC-2 [4]	PSE1 (D/B2)×100 [5]	TS1 (D/B) [5]	increase of PSE2 (times) compared to 4a [2]	decrease of PSE2 (times) compared to 4a [2]	increase of PSE2 (times) compared to 4c [2]	increase of PSE2 (times) compared to 4d [2]	increase of PSE2 (times) compared to 4b [2]	increase of PSE2 (times) compared to 4f ([2]; relative to 4f)	increase of PSE2 (times) compared to 4g ([2]; relative to 4g)	potency-selectivity expression (PSE) (OSCC lines; towards OSCC lines)	tumor specificity (TS) (OSCC lines; towards OSCC lines)
COc1ccc(C2=NN(c3ccc(S(N)(=O)=O)cc3)C(c3ccc(OC)c(OC)c3)C2)cc1 (stereo not drawn) [4-(5-(3,4-dimethoxyphenyl)-3-(4-methoxyphenyl)-4,5-dihydro-1 H -pyrazol-1-yl)benzenesulphonamide]	0.7	3.4	–	–	–	–	–	–	–	–	–	–	–	–	–	–	–	–	–
NS(=O)(=O)c1ccc(N2N=C(c3ccccc3)CC2c2ccc3c(c2)OCO3)cc1 (stereo not drawn) [4a, 4-[5-(1,3-Benzodioxol-5-yl)-3-phenyl-4,5-dihydro-1H-pyrazol-1 yl]benzenesulphonamide]	–	–	2.5	19.3	3.1	3.3	2	2.0	10.3	2.3	–	–	–	–	–	–	–	–	–
COc1ccc(C2=NN(c3ccc(S(N)(=O)=O)cc3)C(c3ccc4c(c3)OCO4)C2)cc1 (stereo not drawn) [4b, 4-[5-(1,3-Benzodioxol-5-yl)-3-(4-methoxyphenyl)-4,5-dihydro-1H-pyrazol-1-yl]benzenesulphonamide]	–	–	18.5	205 and 205.1	21.4	28.6	16.5	16.7	108.6	18	10.6	–	–	–	–	–	–	–	–
COc1cccc(C2=NN(c3ccc(S(N)(=O)=O)cc3)C(c3ccc4c(c3)OCO4)C2)c1 (stereo not drawn) [4c, 4-[5-(1,3-Benzodioxol-5-yl)-3-(3-methoxyphenyl)-4,5-dihydro-1H-pyrazol-1-yl]benzenesulphonamide]	–	–	8.6	10.1	6.1	2.0	6.6	6.5	39.1	6.8	–	at half the value	–	–	–	–	–	–	–
COc1ccccc1C1=NN(c2ccc(S(N)(=O)=O)cc2)C(c2ccc3c(c2)OCO3)C1 (stereo not drawn) [4d, 4-[5-(1,3-Benzodioxol-5-yl)-3-(2-methoxyphenyl)-4,5-dihydro-1H-pyrazol-1-yl]benzenesulphonamide]	–	–	3.0	19.5	2.7	2.7	2.5	2.2	17.9	2.6	–	–	–	–	–	–	–	–	–
COc1ccc(OC)c(C2=NN(c3ccc(S(N)(=O)=O)cc3)C(c3ccc4c(c3)OCO4)C2)c1 (stereo not drawn) [4f, 4-[5-(1,3-Benzodioxol-5-yl)-3-(2,5-dimethoxyphenyl)-4,5-dihydro-1H-pyrazol-1-yl]benzenesulphonamide]	–	–	23.8	425.1	28.2	41.2	22.8	17.4	183.6	22.4	22.0	–	42.1	21.8	–	–	–	–	–
COc1ccc(C2=NN(c3ccc(S(N)(=O)=O)cc3)C(c3ccc4c(c3)OCO4)C2)c(OC)c1 (stereo not drawn) [4g, 4-[5-(1,3-Benzodioxol-5-yl)-3-(2,4-dimethoxyphenyl)-4,5-dihydro-1H-pyrazol-1-yl]benzenesulphonamide]	–	–	26.0	405.4	25.8	40.3	20.1	18.9	193.2	22.2	21.0	–	–	20.8	2.0	–	–	–	–
COc1cc(OC)c(C2=NN(c3ccc(S(N)(=O)=O)cc3)C(c3ccc4c(c3)OCO4)C2)cc1OC (stereo not drawn) [4h, 4-[5-(1,3-Benzodioxol-5-yl)-3-(2,4,5-trimethoxyphenyl)-4,5-dihydro-1H-pyrazol-1-yl]benzenesulphonamide]	–	–	18.8	0.3	1.0	1.0	18.3	1.0	0.9	1.9	–	64.3	–	–	–	–	–	–	–
COc1cc(C2=NN(c3ccc(S(N)(=O)=O)cc3)C(c3ccc4c(c3)OCO4)C2)cc(OC)c1OC (stereo not drawn) [4i, 4-[5-(1,3-Benzodioxol-5-yl)-3-(3,4,5-trimethoxyphenyl)-4,5-dihydro-1H-pyrazol-1-yl]benzenesulphonamide]	–	–	25.2	461.5	30.6	43	42.5	9.2	134.6	19.6	24.0	–	45.7	23.7	2.3	1.1	1.12	–	–
COc1cc(C2=NN(c3ccc(S(N)(=O)=O)cc3)C(c3ccc4c(c3)OCO4)C2)ccc1O (stereo not drawn) [4j, 4-[5-(1,3-Benzodioxol-5-yl)-3-(4-hydroxy-3-methoxyphenyl)-4,5-dihydro-1H-pyrazol-1-yl]benzenesulphonamide]	–	–	2.5	26.4	3.8	–	3.9	2.4	13.8	3.0	–	–	2.6	–	–	–	–	–	–
O=c1[nH]cc(F)c(=O)[nH]1 [5-FU, 5-Fluorouracil, reference compound]	–	–	126.4	206	44.8	45.4	78.9	3.8	17.1	13.0	–	–	–	–	–	–	–	–	–
COc1ccc(C2CC(c3cccs3)=NN2c2ccc(S(N)(=O)=O)cc2)c(OC)c1OC (stereo not drawn) [compound 34, 4-[5-(2,3,4-trimethoxyphenyl)-3-(thiophen-2-yl)-4,5-dihydro-1 H -pyrazol-1-yl]benzensulphonamide]	–	–	–	–	–	–	–	–	–	–	–	–	–	–	–	–	–	10.5	9.5

Values joined by “and” are separate entries in the source; they are usually repeats but may differ in a detail not shown here. Equal entries are not always repeated.
